In US20040166058A1, “Ethylenedicysteine (EC)-drug conjugates, compositions and methods for tissue specific disease imaging” (Board of Regents, The University of Texas System, priority 2002, published 2004):

Tests used:
mammary tumor = test: Scintigraphic imaging in mammary (breast) tumor-bearing rats; assay type: in vivo; settings: iv
[1] = test system: 13762 tumor cell line mammary tumor; test: Gamma scintigraphic imaging in Fischer 344 rats with 13762 mammary tumor; assay type: in vivo; settings: 0.5, 2 and 4 hours after i.v. injection of 300 μCi
Experimental: Female Fischer 344 rats (250-275 g each) (Harlan, Inc., Indianapolis, Ind.) were inoculated with mammary tumor cells by one author from the 13762 tumor cell line (s.c. 10^6 cells/rat, a tumor cell line specific to Fischer rats). After 8-10 days, tumor volumes of 0.3-0.6 cm were measured. Scintigraphic images were obtained 0.5, 2 and 4 hours after i.v. injection of 300 μCi of ^99mTc-EC or ^99mTc-EC-DG (n=3/agent, total 6 rats). ROI between tumor tissue and muscle (at symmetric site) was used to determine tumor/non-tumor ratios. The smallest tumor volume that could be detected by ^99mTc-EC-DG was 3 mm.

[2] = 0.5-4 hrs (EC-TML 0.1-4 hrs), 0.1 mCi/rat

SMILES	Planar images: tumor visualization (mammary tumor; [2])	other results
Nc1nc2c(ncn2CCC(CO)CNC(=O)C2C[S][99Tc]34(=[O])[S]CC(C(=O)NCC(CO)CCn5cnc6c(=O)[nH]c(N)nc65)[N]3CC[N]24)c(=O)[nH]1 (stereo not shown) [^99mTc-EC-penciclovir]	tumors could be visualized	
O=C(NC1C(O)OC(CO)C(O)C1O)C1C[S][99Tc]23(=[O])[S]CC(C(=O)NC4C(O)OC(CO)C(O)C4O)[N]2CC[N]13 (stereo not shown) [^99mTc-EC-DG]		smallest tumor volume that could be detected [1]: 3 mm
C[N+](C)(C)CCCCC(NC(=O)C1C[S][99Tc]23(=[O])[S]CC(C(=O)NC(CCCC[N+](C)(C)C)C(=O)[O-])[N]2CC[N]13)C(=O)[O-] (stereo not shown) [^99mTc-EC-carnitine]	tumors could be visualized	
Cc1ccc(-c2cc(C(F)(F)F)nn2-c2ccc(S(=O)(=O)NC(=O)NCC(=O)NCCNC(=O)C3C[S][99Tc]45(=[O])[S]CC(C(=O)O)[N]4CC[N]35)cc2)cc1 (stereo not shown) [^99mTc-EC-COX-2]		Planar images: tumor visualization (mammary tumor; 0.5-4 hrs, 0.3 mCi/rat): tumors could be visualized clearly
